# Results are given in words; binding and its absence hold for the method and conditions named. In cells and extracts the contact can be indirect. These calls come from enrichment with a bait or labelling near it, and not all partners need be listed. Tags and fused reporters may be left off the sequences shown.
# Protein sequences, listed by entry. Tags and fused reporters are not part of them.
# UniProt A0A1D8PCM9: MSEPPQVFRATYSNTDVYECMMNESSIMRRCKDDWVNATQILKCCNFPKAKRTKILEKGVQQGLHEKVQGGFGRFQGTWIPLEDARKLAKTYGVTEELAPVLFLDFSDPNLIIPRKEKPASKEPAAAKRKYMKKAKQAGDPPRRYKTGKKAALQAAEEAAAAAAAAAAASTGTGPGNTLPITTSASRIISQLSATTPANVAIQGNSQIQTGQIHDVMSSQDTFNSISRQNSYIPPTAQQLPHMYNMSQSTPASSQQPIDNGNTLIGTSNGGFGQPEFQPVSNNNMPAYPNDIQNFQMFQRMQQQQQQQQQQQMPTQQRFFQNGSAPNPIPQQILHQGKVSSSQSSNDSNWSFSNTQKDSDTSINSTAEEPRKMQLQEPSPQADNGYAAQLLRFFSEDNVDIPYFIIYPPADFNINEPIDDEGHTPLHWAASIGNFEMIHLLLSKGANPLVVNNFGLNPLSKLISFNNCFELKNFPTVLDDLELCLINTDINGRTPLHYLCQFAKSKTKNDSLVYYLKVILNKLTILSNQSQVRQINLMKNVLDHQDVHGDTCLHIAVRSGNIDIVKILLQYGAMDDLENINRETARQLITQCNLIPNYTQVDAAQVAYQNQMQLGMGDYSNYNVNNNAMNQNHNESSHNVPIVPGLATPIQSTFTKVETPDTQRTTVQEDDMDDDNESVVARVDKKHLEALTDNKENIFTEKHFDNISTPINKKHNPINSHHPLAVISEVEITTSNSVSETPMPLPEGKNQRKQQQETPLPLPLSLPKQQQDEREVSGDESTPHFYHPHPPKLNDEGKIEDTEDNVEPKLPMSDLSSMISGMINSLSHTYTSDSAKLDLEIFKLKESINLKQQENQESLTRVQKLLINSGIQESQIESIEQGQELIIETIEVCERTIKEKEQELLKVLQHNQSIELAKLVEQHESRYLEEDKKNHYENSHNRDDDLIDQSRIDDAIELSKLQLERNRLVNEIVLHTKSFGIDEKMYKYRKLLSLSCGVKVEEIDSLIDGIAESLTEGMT
# Target: T1, Cas5-HA (C terminally HA-tagged Cas5) (C. albicans) (UniProt Q5AMH6)
# T1 sequence: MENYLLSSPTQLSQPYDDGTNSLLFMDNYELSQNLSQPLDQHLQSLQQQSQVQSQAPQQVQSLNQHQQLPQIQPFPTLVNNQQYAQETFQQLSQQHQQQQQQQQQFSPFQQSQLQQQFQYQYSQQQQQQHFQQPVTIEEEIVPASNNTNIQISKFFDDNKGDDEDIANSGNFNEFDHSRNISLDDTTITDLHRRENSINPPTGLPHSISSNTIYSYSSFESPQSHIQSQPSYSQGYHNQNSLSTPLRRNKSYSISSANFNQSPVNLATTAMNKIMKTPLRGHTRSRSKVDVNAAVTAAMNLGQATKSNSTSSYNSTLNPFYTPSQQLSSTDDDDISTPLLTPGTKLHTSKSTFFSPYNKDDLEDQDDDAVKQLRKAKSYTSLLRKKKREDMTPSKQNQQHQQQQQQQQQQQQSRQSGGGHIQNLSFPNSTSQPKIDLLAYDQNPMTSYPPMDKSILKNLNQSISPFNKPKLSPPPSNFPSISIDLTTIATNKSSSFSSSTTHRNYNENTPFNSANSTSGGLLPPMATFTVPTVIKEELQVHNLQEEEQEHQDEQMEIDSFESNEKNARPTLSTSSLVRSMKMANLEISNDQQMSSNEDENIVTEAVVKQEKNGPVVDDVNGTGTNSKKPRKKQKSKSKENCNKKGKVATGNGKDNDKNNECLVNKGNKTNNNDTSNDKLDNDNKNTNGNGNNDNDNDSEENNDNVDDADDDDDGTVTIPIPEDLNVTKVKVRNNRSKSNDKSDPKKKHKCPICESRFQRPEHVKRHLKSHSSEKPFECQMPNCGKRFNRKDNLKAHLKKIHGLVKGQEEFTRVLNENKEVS
# Test: affinity purification with mass spectrometry; clarified whole-cell lysates (10 mg protein per sample) extracted with immobilized anti-HA beads for 3 h; washed with lysis buffer and water; eluted with 0.15% TFA; trypsin digest, LC-MS/MS; SAINT probability threshold 0.9
substance,measurement,value
Swi4 (from UniProt A0A1D8PCM9 1-1019),binding,binds

# Source: article PMC5593949
